PubChem BioAssay AID493246 | Drosophila RNAi Screening Center, 2011
In all, the deposit lists about 21,000 reagents; below is a random part of those that have a named target and a result. Over the whole deposit, 429 (2%) are marked active. 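Values are raw and not normalised between plates; calls rest on per-plate z-scores that were not deposited.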 Unmarked entries are inactive. The numbers tell different reagents against one gene apart. Not given: the amount of reagent, the time to read-out.

- Test: 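Genes fly cells need to grow and stay alive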 (primary screen)
- Cell system: Drosophila Kc and S2R+ cells
- Knock-down reagent: long dsRNA against Drosophila genes
- Measurement: 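Raw, unnormalised count of remaining cells in each well; per-plate z-scores of cell number underlie the calls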
- Direction: Kc cell number and S2R+ cell number: higher = more cells remaining
- Hit rule: 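Active when the per-plate z-score of cell number is 3 or more in the direction of fewer cells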

target gene | dsRNA no. | Kc cell number, rep 1 | Kc cell number, rep 2 | S2R+ cell number, rep 1 | S2R+ cell number, rep 2
ArfGAP1 (ADP-ribosylation factor GTPase activating protein 1) | 1 | 1.56e6 | 1.56e6 | 1.37e6 | 1.43e6
Nepl16 (Neprilysin-like 16) | 1 | 1.45e6 | 1.50e6 | 9.66e5 | 1.03e6
CG8838 | 1 | 1.28e6 | 1.41e6 | 1.17e6 | 1.18e6
Jon74E (Jonah 74E) | 1 | 1.42e6 | 1.48e6 | 1.16e6 | 1.29e6
CG1542 | 1 | 4.11e5 | – | 6.94e5 | –
CG5377 | 1 | 1.33e6 | 1.34e6 | 1.09e6 | 1.18e6
NdufA3 (NADH:ubiquinone oxidoreductase subunit A3) | 1 | 1.69e6 | 1.63e6 | 8.50e5 | 9.56e5
Ctl1 (Choline transporter-like 1) | 1 | 1.49e6 | 1.45e6 | 1.15e6 | 1.28e6
CG14805 | 1 | 1.50e6 | 1.47e6 | 1.04e6 | 1.11e6
SmydA-4 (SET and MYND domain containing, arthropod-specific, member 4) | 1 | 1.45e6 | 1.45e6 | 1.02e6 | 1.16e6

No new results follow: an excerpt of the list.
target gene | dsRNA no. | Kc cell number, rep 1 | Kc cell number, rep 2 | S2R+ cell number, rep 1 | S2R+ cell number, rep 2
CG5377 | 1 | 1.33e6 | 1.34e6 | 1.09e6 | 1.18e6
NdufA3 (NADH:ubiquinone oxidoreductase subunit A3) | 1 | 1.69e6 | 1.63e6 | 8.50e5 | 9.56e5
Ctl1 (Choline transporter-like 1) | 1 | 1.49e6 | 1.45e6 | 1.15e6 | 1.28e6
CG14805 | 1 | 1.50e6 | 1.47e6 | 1.04e6 | 1.11e6

Continued:
target gene | dsRNA no. | Kc cell number, rep 1 | Kc cell number, rep 2 | S2R+ cell number, rep 1 | S2R+ cell number, rep 2
Ugt37C2 (UDP-glycosyltransferase family 37 member C2) | 1 | 1.47e6 | 1.64e6 | 1.17e6 | 1.35e6
CG10598 | 1 | 1.63e6 | 1.63e6 | 1.16e6 | 1.26e6
Pef (Peflin) | 1 | 1.62e6 | 1.56e6 | 1.11e6 | 1.17e6
cid (centromere identifier) | 1 | 1.49e6 | 1.47e6 | 9.83e5 | 1.15e6
cid (centromere identifier) | 2 | 1.59e6 | 1.62e6 | 1.33e6 | 1.42e6
dock (dreadlocks) | 1 | 1.19e6 | 1.39e6 | 1.07e6 | 1.11e6
Nlg4 (Neuroligin 4) | 1 | 1.40e6 | 1.40e6 | 1.03e6 | 1.14e6
Nlg4 (Neuroligin 4) | 2 | 1.42e6 | 1.42e6 | 1.04e6 | 1.13e6
Nlg4 (Neuroligin 4) | 3 | 1.40e6 | 1.47e6 | 1.02e6 | 1.09e6
Nlg4 (Neuroligin 4) | 4 | 7.68e5 (active) | 7.34e5 | 5.68e5 | 6.26e5
Rab39 | 1 | 1.52e6 | 1.46e6 | 1.08e6 | 1.05e6
CG34033 | 1 | 1.47e6 | 1.56e6 | 9.64e5 | 1.12e6
Dnaaf5 (Dynein axonemal assembly factor 5) | 1 | 1.47e6 | 1.64e6 | 1.06e6 | 1.23e6
CG5068 | 1 | 1.30e6 | 1.35e6 | 1.21e6 | 1.18e6
